Measurements as given in US12017917B2, “Composition, particulate materials and methods for making particulate materials” (THE UNIVERSITY OF QUEENSLAND, priority 2015, dated 2024).
≈ marks a conversion by molar mass, not a printed value.

System: Escherichia coli (E. coli)
Test: In vitro antibacterial activity of VAN formulations (OD 600 nm)
Format: cell-based
Settings: 18 h, read-out: minimum inhibitory concentration (MIC)
Description: The use of nanoparticles as a delivery vehicle for antibiotics provides a promising strategy through prolonged drug circulation half-life, increased availability of drugs interacting with membrane molecules and promoted sustained drug release. VAN is an antibiotic useful for the treatment of a number of bacterial infections since it inhibits the cell wall synthesis in susceptible bacteria. […] The in vitro antibacterial activity of VAN, MHS200-VAN and RMHS200-VAN was evaluated by monitoring the optical density (OD) at 600 nm of a bacterial suspension. E. coli (1×10^6 CFU mL^−1) was incubated in Luria-Bertani (LB) medium in a 1.5 ml centrifuge tube at various concentrations of VAN for 18 h. […] This value reduced to 20 μg ml^−1 for RMHS200-VAN which is lower than the dosage used with VAN conjugated MCM-41 (200 μg ml^−1) in in-vitro E. coli culture at 18 h. In a separate experiment, MHS200-VAN, RMHS200-VAN and free VAN with the same VAN content of 25 μg ml^−1 were incubated with 1×10^6 CFU mL^−1 E. Coli in LB media and OD was measured as a function of time.

Compound: CN[C@H](CC(C)C)C(=O)N[C@H]1C(=O)N[C@@H](CC(N)=O)C(=O)N[C@H]2C(=O)N[C@H]3C(=O)N[C@H](C(=O)N[C@H](C(=O)O)c4cc(O)cc(O)c4-c4cc3ccc4O)[C@H](O)c3ccc(c(Cl)c3)Oc3cc2cc(c3O[C@@H]2O[C@H](CO)[C@@H](O)[C@H](O)[C@H]2O[C@H]2C[C@](C)(N)[C@H](O)[C@H](C)O2)Oc2ccc(cc2Cl)[C@H]1O [free VAN, vancomycin]
- MIC: 25 µg/mL (≈ 17.3 µM)
